In patent publication US20230057461A1 (US Dept. of Health and Human Services, published 2023):
No constants are given. Whether binding was seen depends on the method and setting. A result given as binding can be weak or reduced; the word gives no strength. Tags and fused reporters may be left off the sequences shown. For some assays here: Binding seen in cells or lysates may run through a third protein.

Legend:
RabGDI [1] = assay: immunoprecipitation with anti-GFP antibodies, Western blot
RabGDI [2] = assay: co-immunoprecipitation of GFP-Rab13 with GFP-Trap beads from MDA-MB-231 lysates, Western blot

binding (RabGDI [1]): binds
binding (RabGDI [2]): binds
B1: GFP-Rab13 (N-terminally GFP-tagged human Rab13) (other, UniProt P51153 1-203, looked up, not shown: large carriers)
chain: MAKAYDHLFKLLLIGDSGVGKTCLIIRFAEDNFNNTYISTIGIDFKIRTVDIEGKKIKLQVWDTAGQERFKTITTAYYRGAMGIILVYDITDEKSFENIQNWMKSIKENASAGVERLLLGNKCDMEAKRKVQKEQADKLAREHGIRFFETSAKSSMNVDEAFSSLARDILLKSGGRRSGNGNKPPSTDLKTCDKKNTNKCSLG
notes: Stably expressed in MDA-MB-231 cells from constructs with the wild type or the delta-PMO Rab13 3'UTR; the encoded protein is the same; Assayed from cell lysates; also called exogenous GFP-Rab13; exogenous Rab13
